This is one part of the list. This data set is noisy: repeats of one test often differ as much as different tests do.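 The human kidney-derived cells carry a stably integrated construct of eight TEAD-binding elements driving luciferase, read by luminescence in a drug-repurposing library screen. A compound counts as a hit when its signal is more than five robust Z scores above the plate mean.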

The test system of the experiment is HEK293A TEAD-LUC reporter. Put plainly: TEAD-luciferase reporter activity (YAP activation), robust Z score vs plate; higher = stronger YAP/TEAD activation. The conditions noted are these: 24 h. For orientation: Reporter assays use an easily measured gene product as a stand-in for the process of interest.

For the compound `COCCOc1ccc(N2CCN(CCn3ncc4c3nc(N)n3nc(-c5ccco5)nc43)CC2)cc1` [Preladenant], the TEAD-luciferase reporter activity is inactive: -0.688 (compound concentration: 200 nM), inactive: -0.601 (compound concentration: 2 uM) and inactive: -1.38 (compound concentration: 10 uM).
In the same order, the values of `CN/C(=N\S(=O)(=O)N1CCCCC1)N1C[C@H](c2ccccc2)C(c2ccc(Cl)cc2)=N1` are inactive: 3.05, inactive: -0.125 and inactive: 1.28.
For `Cn1cc(O)nc1NC(=O)Nc1cccc(Cl)c1` [fenobam] the same measures were inactive: 2.26, inactive: -0.386 and inactive: 3.63.
In the case of `Nc1nc(=O)c2[nH]cc(Cc3cccnc3)c2[nH]1` [Peldesine], the TEAD-luciferase reporter activity reads like this: (compound concentration: 200 nM) inactive: -0.471; (compound concentration: 10 uM) inactive: -0.0172.
In the case of `COCC(COC)Nc1nc(C)nc2c(-c3ccc(Cl)cc3Cl)c(C)nn12`, the TEAD-luciferase reporter activity (compound concentration: 200 nM) was inactive: -2.24, the TEAD-luciferase reporter activity (compound concentration: 2 uM) is inactive: -1.34 and the TEAD-luciferase reporter activity (compound concentration: 10 uM) is inactive: -0.403.
As for `O=C(O)[C@H](CC(=O)N1C[C@H]2CCCC[C@H]2C1)Cc1ccccc1` [mitiglinide], the TEAD-luciferase reporter activity was inactive: -0.782 (compound concentration: 200 nM), inactive: 0.699 (compound concentration: 2 uM) and inactive: 1.22 (compound concentration: 10 uM).
On to `CCc1oc(-c2ccc(OC)cc2)nc1CCOc1ccc2c(c1)CCC2CC(=O)O` (stereo not drawn), for which the TEAD-luciferase reporter activity by setting is: (compound concentration: 200 nM) inactive: -1.34; (compound concentration: 2 uM) inactive: -0.163; (compound concentration: 10 uM) inactive: 0.0382.
For `COc1ccc(C(=O)Nc2cc(Cl)cnc2Cl)c2cccnc12`, the TEAD-luciferase reporter activity reads like this: (compound concentration: 200 nM) inactive: 3.39; (compound concentration: 2 uM) inactive: -0.387; (compound concentration: 10 uM) inactive: 2.81.
With `CCCCOCC(O)COc1ccccc1` (stereo not drawn) [febuprol], the TEAD-luciferase reporter activity (compound concentration: 200 nM) is inactive: 0.297, the TEAD-luciferase reporter activity (compound concentration: 2 uM) was inactive: -2.07 and the TEAD-luciferase reporter activity (compound concentration: 10 uM) was inactive: 0.0495.
On to `CN(C)N=Nc1nc2c(c(=O)n(C)c(=O)n2C)n1C`, for which the TEAD-luciferase reporter activity runs as follows: (compound concentration: 200 nM) inactive: -1.87; (compound concentration: 2 uM) inactive: -0.812; (compound concentration: 10 uM) inactive: 1.34.
In the same order, the values of `CN1CCc2cc(Cl)c(O)cc2[C@@H](c2cccc3c2OCC3)C1` [Odapipam acetate] are inactive: 3.1, inactive: 0.529 and inactive: 0.452.
Regarding `Cc1ccc(-n2nc(C(C)(C)C)cc2NC(=O)NCc2cc(F)ccc2Oc2ccc3c(cnn3CCO)c2)cc1`, the TEAD-luciferase reporter activity (compound concentration: 2 uM) was inactive: -1.1.
For the compound `Cc1ccc(-n2nc(C(C)(C)C)cc2NC(=O)NCc2cc(F)ccc2Oc2ccc3c(cnn3CCO)c2)cc1` [Pexmetinib], the TEAD-luciferase reporter activity was inactive: -0.3 (compound concentration: 200 nM), inactive: -0.982 (compound concentration: 2 uM) and inactive: -1.55 (compound concentration: 10 uM).
Consider `O=C(NCCNC(=O)c1ccccn1)c1ccc(-c2cncnc2)cc1`, for which the TEAD-luciferase reporter activity was inactive: -0.16 (compound concentration: 200 nM) and inactive: 1.72 (compound concentration: 10 uM).
`CCCCCN(CCCOC)C(=O)C(CCC(=O)O)CS(=O)(=O)c1ccc2ccccc2c1` (stereo not drawn): the TEAD-luciferase reporter activity is inactive: 1.25 (compound concentration: 200 nM), inactive: 0.0879 (compound concentration: 2 uM) and inactive: 0.0116 (compound concentration: 10 uM).
In the case of `O=C([C@@H](O)CO)N1CC=C(c2c(F)cc(N3C[C@H](COc4ccon4)OC3=O)cc2F)CC1`, the TEAD-luciferase reporter activity is inactive: -2.02 (compound concentration: 200 nM) and inactive: -0.00807 (compound concentration: 10 uM).
For `C[C@@H]1C[C@H]2O[C@@H]2/C=C\C=C\C(=O)Cc2c(Cl)c(O)cc(O)c2C(=O)O1` [Radicicol], the TEAD-luciferase reporter activity is inactive: -0.203 (compound concentration: 200 nM), inactive: 3.25 (compound concentration: 2 uM) and inactive: -0.00193 (compound concentration: 10 uM).
For `COc1ccc(-c2nc3c4ccccc4ccc3n2C(C)C)cc1` the same measures were inactive: -0.101, inactive: 1.81 and inactive: 0.916.
In the case of `O=C(CCCCCCC(=O)Nc1cccnc1)NO` [pyroxamide, Aton Pharma], the TEAD-luciferase reporter activity by setting is: (compound concentration: 200 nM) inactive: -0.0364; (compound concentration: 10 uM) inactive: 0.607.
Consider `O=C(CCCCCCC(=O)Nc1cccnc1)NO` [pyroxamide], for which the TEAD-luciferase reporter activity (compound concentration: 2 uM) is inactive: 4.61.
As for `Cc1nc2cnccc2n1CC1CCN(C(=O)CC(c2ccccc2)c2ccccc2)CC1`, the TEAD-luciferase reporter activity by setting is: (compound concentration: 200 nM) inactive: -1.33; (compound concentration: 2 uM) inactive: -1.35; (compound concentration: 10 uM) inactive: 0.522.
For `O=C(Cc1ccc(F)cc1)N1CCC(C(=O)N2CCC(c3ccccc3)CC2)CC1`, the TEAD-luciferase reporter activity (compound concentration: 200 nM) is inactive: -1.47 and the TEAD-luciferase reporter activity (compound concentration: 10 uM) was inactive: 2.32.
Take `CN1CCN(CCOc2cc(OC3CCOCC3)c3c(Nc4c(Cl)ccc5c4OCO5)ncnc3c2)CC1` [saracatinib]: the TEAD-luciferase reporter activity was inactive: 0.0164 (compound concentration: 200 nM), inactive: -2.16 (compound concentration: 2 uM) and inactive: -1.82 (compound concentration: 10 uM).
Regarding `c1ccc(-c2nnc(O[C@@H]3[C@@H]4C[C@@H]5C[C@H]3CN(C5)C4)s2)cc1` [Nelonicline], the TEAD-luciferase reporter activity (compound concentration: 200 nM) was inactive: -0.245, the TEAD-luciferase reporter activity (compound concentration: 2 uM) is inactive: -0.182 and the TEAD-luciferase reporter activity (compound concentration: 10 uM) is inactive: 0.0739.
In the same order, the values of `O=C(Nc1ccc(Cl)c2ccccc12)C1CCN(C(=O)Cn2c(=O)sc3ccc(Cl)cc32)CC1` are inactive: -1.16, inactive: 0.434 and inactive: 1.22.
In the same order, the values of `CCOP(=O)(CCCCCCOc1ccc(OC)cc1Cl)OCC` are inactive: -0.291, inactive: -0.792 and inactive: 0.156.
For the compound `CC(C)NS(=O)(=O)CCN1C(=O)c2ccccc2C1=O` [taltrimide], the TEAD-luciferase reporter activity is inactive: -1.51 (compound concentration: 200 nM), inactive: -0.134 (compound concentration: 2 uM) and inactive: -2 (compound concentration: 10 uM).
For the compound `CC(=O)O[C@]1(C(C)=O)CCC2C3C=C(Cl)C4=CC(=O)CCC4(C)C3CCC21C` (stereo partly drawn) [Chlormadi    acetate], the TEAD-luciferase reporter activity (compound concentration: 2 uM) is inactive: -0.879.
With `CC(=O)O[C@]1(C(C)=O)CCC2C3C=C(Cl)C4=CC(=O)CCC4(C)C3CCC21C` (stereo partly drawn), the TEAD-luciferase reporter activity runs as follows: (compound concentration: 200 nM) inactive: 0.0871; (compound concentration: 10 uM) inactive: -2.24.
With `CN(C(=O)CO/N=C(/c1ccccc1)c1ccc2c(c1)CN1CC(=O)NC1=N2)C1CCCCC1`, the TEAD-luciferase reporter activity runs as follows: (compound concentration: 200 nM) inactive: -1.08; (compound concentration: 2 uM) inactive: -0.247; (compound concentration: 10 uM) inactive: 0.158.

These data come from the supplement of paper PMC10735217.
